Publication doi:10.1101/2025.03.14.642698
No constants are given. Whether binding was seen depends on the method and setting. In cells and extracts the contact can be indirect. Some results given as binding are weak or reduced against the parent protein; the word gives no strength. Sequences can lack the tags named with a protein. Blank lines part the entries; values can stand above or below the binder they belong to.

Columns and labels:
Experiment in all cases: co-IP
[1] = target: T1, Ldb16 (1-133)-FLAG, genomically expressed (S. cerevisiae) (UniProt P25587)
T1 sequence: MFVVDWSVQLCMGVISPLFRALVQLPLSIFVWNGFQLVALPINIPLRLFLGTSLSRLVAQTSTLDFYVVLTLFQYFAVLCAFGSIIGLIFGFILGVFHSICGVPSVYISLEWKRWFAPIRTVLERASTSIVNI

[2] = target: T2, Ldb16-3xFLAG, wild type, plasmid-borne (S. cerevisiae) (UniProt P25587)
T2 sequence: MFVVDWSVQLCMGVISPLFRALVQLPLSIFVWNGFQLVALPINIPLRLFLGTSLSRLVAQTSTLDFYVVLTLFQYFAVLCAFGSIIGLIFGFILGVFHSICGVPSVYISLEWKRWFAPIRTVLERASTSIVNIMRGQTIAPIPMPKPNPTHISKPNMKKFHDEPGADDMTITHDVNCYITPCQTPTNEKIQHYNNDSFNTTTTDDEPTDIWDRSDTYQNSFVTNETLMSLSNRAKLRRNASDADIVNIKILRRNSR

[3] = target: T3, Ldb16-FLAG, wild type, genomically expressed (S. cerevisiae) (UniProt P25587)
T3 sequence: T2 sequence

binding [1]: binds | binding [2]: binds | binding [3]: binds
B1: Ldo45-HA, endogenously tagged (protein, UniProt P40218 1-412)
chain: MAARNRRKNNKKKSLLVTSAAQEKNATYVLVAEELHKKTIDLNMGTETPLTENHENPIPAKEFKHQQKLEPIDEHDDGEDELSIKFKSMTKSSGPITEAEVQKLLLSYAFTSAAIQEDENEKESRHYPIKPPSPSASSLSAYFQSFVEKCKQVFYNFSLQTVEKLNALQNSLYEVFWIIFIYLNYWFPNVGDYVSNTFGQQDSIIIRISLSKSHFRALREKSSQKVQQAVKNIYFCFQEKPYLTAFKVSFAIGLVIPCSLLFLIMVSTATFFFFVYLTLFVVIGFFSSLFIIPLLGISFVFAIGVVSFGFCSNMSFKMAQLIYVRADAFLKKVLDKMALQTQPAQLQEPQEPLSTLRPVSNPTIPSPLRQTARPSKFVTEEDVIFEPVSAQSAIARSLETTANKAGNKFQLS

binding [1]: binds | binding [2]: binds | binding [3]: binds
B2: Ldo16-HA, endogenously tagged (protein, UniProt P40219 1-148)
chain: MVSTATFFFFVYLTLFVVIGFFSSLFIIPLLGISFVFAIGVVSFGFCSNMSFKMAQLIYVRADAFLKKVLDKMALQTQPAQLQEPQEPLSTLRPVSNPTIPSPLRQTARPSKFVTEEDVIFEPVSAQSAIARSLETTANKAGNKFQLS
